From patent publication US20030180947A1, “Circadian control of stem/progenitor cell self-renewal and differentiation and of clock controlled gene expression” (priority 2001, published 2003)
“Also recorded” adds a separate entry of the source. At least one structure is not confirmed: it was looked up by name or label, or the drawing left a doubt.

How the values were obtained:
Rat-1 fibroblasts = conditions: cultured Rat-1 fibroblasts; Balsalobre et al. 2000; cited from earlier work
peripheral clocks = conditions: in vivo, injection into mice; Balsalobre et al. 2000; cited from earlier work
[1] = system: mPer1 expression in the lin− cells; experiment: Effect on mPer1 expression in lin− bone marrow cells (relative quantitative RT-PCR); assay type: cell-based, mouse; conditions: 200 nM dexamethasone or 1 μM PMA, 1 or 2 hours, vs ethanol control
Protocol: (§1) Bone marrow cells were incubated with ACK lysing buffer (0.15M NH4Cl, 1 mM KHCO3 and 0.1 mM Na2EDTA; pH7.2) at room temperature for 4 minutes to remove red blood cells. The lin^− (lineage marker-negative) bone marrow cells were obtained by depleting lineage marker-positive cells using the MACS magnetic separation system (Miltenyi Biotec, Auburn, Calif.) according to the manufacturer's instructions. The antibodies used were PE-labeled rat anti-mouse Gr-1, TER119, B220, CD4, CD8, and Mac-1 monoclonal antibodies (all from BD PharMingen, San Diego, Calif.). Briefly, the cells were incubated with the antibody cocktail for the lineage markers described above at 6-10° C. for 15 minutes. After two washes with 1×phosphate-buffered saline (PBS; Sigma, St. Louis, Mo.) supplemented with 0.5% FBS (Hyclone), the cells were incubated with anti-PE antibody-coated magnetic beads (Miltenyi Biotec) at 6-10° C. for 15 minutes. […]
(§2) For each RT-PCR experiment, samples from six time points were analyzed at the same time. […]
(§3) Within each PCR experiment, the linear range of amplification was first determined using cDNA pooled from 6 time points. […]
(§4) As a negative control, the products of the RT reactions, without reverse transcriptase, were subjected to the same PCR amplification. […] Their relative quantities were determined by using the Image-Pro Plus software (Media Cybernetics). […]

[2] = system: mPer2 expression in the lin− cells; experiment: Effect on mPer2 expression in lin− bone marrow cells (relative quantitative RT-PCR); assay type: cell-based, mouse; conditions: 200 nM dexamethasone or 1 μM PMA, 1 or 2 hours, vs ethanol control
Protocol: as §1, §2, §3, §4

SMILES | Per1 induction and circadian gene expression (Rat-1 fibroblasts) | resetting of circadian clocks in peripheral tissues (peripheral clocks) | mPer1 expression [1] | mPer2 expression [2]
C=C[C@@]1(C)CC(=O)[C@]2(O)[C@@]3(C)[C@@H](O)CCC(C)(C)[C@@H]3[C@H](O)[C@H](OC(C)=O)[C@@]2(C)O1 [forskolin] | induce immediate Per1 up-regulation and trigger circadian expression |  |  | 
C[C@@H]1C[C@H]2[C@@H]3CCC4=CC(=O)C=C[C@]4(C)[C@@]3(F)[C@@H](O)C[C@]2(C)[C@@]1(O)C(=O)CO [dexamethasone] | induce mPer1 expression and elicit circadian gene expression; also recorded: induce immediate Per1 up-regulation and trigger circadian expression | reset peripheral clocks in vivo; also recorded: resets the circadian clocks in various peripheral tissues without affecting the central clock in the SCN | dramatically enhanced | neither dexamethasone nor PMA had a significant effect
